# Library screen at single concentrations

Source: ChEMBL document CHEMBL3988442, “University of Dundee, Small-Polar-MMV Screening Library” (2021).

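Whole-parasite assay of Trypanosoma brucei over 72 hours; the read-out is not stated. Concentration: 30 µM. The record gives no direction; compounds that gave an IC50 in retests scored well above the rest, so higher reads as stronger inhibition. Values scatter widely below zero; nearly all retest evidence comes from the higher of the two concentrations used. Size under these conditions: about 64,000 compounds, about 940 of them at 50% or above in at least one test.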

Values are the deposited “Percent Effect”, in %. How 0% and 100% were set is not recorded. Most values in the screen are low, and negative values occur. The compounds are a random part of those screened.

compound,Percent Effect
CCc1nccn1CCC(=O)N1CC[C@@H](c2ccc(F)cc2)[C@H](O)C1,-25.79%
O=C(c1cc(F)ccc1F)C1CCN(C(=O)c2ccccn2)CC1,-11.74%
COCCN1CCN(Cc2csc(-c3cnn(C)c3)n2)CC1,4.93%
CCC(C)(NCC(=O)NC(C)C)c1nc(C)cs1 (centres undefined),-21.69%
N#Cc1ccc(CNC(=O)NC2CCN(c3ncccn3)CC2)cc1,-43.55%
CC(Nc1ccc(C(F)(F)F)cc1C#N)c1cccc(S(N)(=O)=O)c1 (centres undefined),47.4%
Cn1cc(N2CCC(NC(=O)c3ccccc3Cl)C2=O)cn1 (centres undefined),-54.55%
CCn1c(C2CCN(C(=O)c3cc(C4CC4)on3)CC2)nn(C)c1=O,-0.6758%
O=C(Nc1ccnn1Cc1ccc(Cl)cc1)C1CCS(=O)(=O)C1 (centres undefined),-51.85%
CN(C(=O)Cn1nc(-c2ccc(F)cc2)oc1=O)C1CCS(=O)(=O)C1 (centres undefined),-8.391%
CCOc1ncccc1Cn1cc(-c2cncnc2)nn1,-12.5%
CN(Cc1cnn(C)c1)Cc1nc(Cc2cccc(Cl)c2)no1,-30.3%
[H][C@@]12CCC(=O)N(c3ccccc3)[C@]1([H])CCN2C(=O)c1cccs1,-30.38%
Cc1nc(CNCC2CNc3ccnn3C2)cs1 (centres undefined),-52.2%
CN(C)C(=O)CN1CCCCC1c1nc(N)ncc1-c1cccc(F)c1 (centres undefined),1.559%
CC(C)c1n[nH]c(C2CN(C(=O)c3cc(C4CC4)on3)CCO2)n1 (centres undefined),-15.2%
CN(C)c1cc(N2CCN(c3ccccn3)CC2)ncn1,-27.4%
CCCN(CCc1ccccc1)c1ncnc2oc(C)nc12,-78.99%
Cc1cccnc1CN1CC[C@H](Oc2cccc(F)c2)[C@@](C)(O)C1,-17.61%
O=C(O)C(F)(F)F.[H][C@@]12CCN(C3CCOCC3)[C@@]1([H])CC(=O)N2Cc1csc(C)n1,-42.8%
CC(C)(C)c1ncc2c(n1)CN(C(=O)c1ccc(C#N)nc1)C2,-36.64%
Cc1ncc(C(=O)NC2CCN(CCOc3ccc(Br)cc3)CC2)s1,9.7%
COC(=O)[C@@H]1CN(C(=O)NC(C)C)CCN1S(=O)(=O)c1ccccc1,-10.37%
CCn1nc(C)cc1S(=O)(=O)N1CCC2(CCCN(C(C)C)C2=O)C1 (centres undefined),-8.195%
CCC(=O)N1CCC2(CCN(Cc3cccc(F)c3)CC2)CC1.O=C(O)C(F)(F)F,9.136%
O=C(NCC1CCS(=O)(=O)C1)c1cccc(CN2CCCC2)c1 (centres undefined),4.009%
O=C(Cc1ccc(Cl)cc1)N[C@@H]1CCC[C@@H](O)[C@@H]1O,-8.125%
CCC(=O)N1CCC(c2nc3c(c(NC)n2)CN(C)CC3)C1 (centres undefined),-42.46%
CCOCCC(=O)Nc1cccc(Cl)c1COC,-4.05%
CCCn1c(NCCc2ccccc2)nc2c(C)nn(C)c2c1=O,99.9%
O=C(O)C(F)(F)F.[H][C@@]12COC[C@]1([H])[C@@H](OCC(=O)N(C)C)CN2Cc1nccs1,-75.65%
CN(C)CC1(O)CCN(C(=O)Cc2ccc3c(c2)CCC3)C1 (centres undefined),12.15%
CCC(NCc1nccn1C)c1nc(C(F)(F)F)cs1 (centres undefined),-19.31%
O=C(C1CCOC1)N1CCN(Cc2ccc3c(c2)CCO3)CC1 (centres undefined),-17.92%
Cc1cc(-c2cnc(NCc3ccc4c(c3)OCO4)nc2C(C)C)on1,70.78%
CC(=O)N1CC(C)CN(C(=O)c2cscn2)c2ccccc21 (centres undefined),-15.2%
CN(C)C(=O)CCC(=O)NCc1cccnc1-n1cnc2ccccc21,19.28%
CCC1CN(Cc2nnc(C(C)C)o2)CCC(=O)N1Cc1ccccc1 (centres undefined),-13.49%
O=C(CNC(=O)C1(c2ccc(F)cc2F)CCC1)Nc1cccnc1,-51.14%
O=C(c1ccsc1)N1C[C@@H](CN2CCCC2)[C@@H](CO)C1,-5.914%
CC(C)Oc1ncccc1CNC(=O)NC1CCOc2ccccc21 (centres undefined),-3.311%
[H][C@]12CCN(C(=O)Cc3ccsc3)C[C@@]1([H])OCCN(CCN(C)C)C2,-46.01%
COCCCN1CCN(c2ncnc3nc(C)cc(C)c23)CC1,-1.967%
CN1CCC(N(Cc2ccncc2)Cc2nc3c(s2)CCCC3)CC1,-5.76%
N#Cc1cccnc1NCc1ccc(S(=O)(=O)NC2CC2)cc1,-19.97%
CN1CCCCC12CCN(c1nncs1)C2 (centres undefined),-29.79%
CCN1CC2(CC1=O)CN(C(=O)c1ccoc1)CCN(C(=O)N(C)C)C2 (centres undefined),-4.155%
CC(C)CN1C(=O)C2(CCCC2)NC1c1cn(C)c(=O)n(C)c1=O (centres undefined),7.399%
Cn1nccc1-c1cnc2n1CCC21CCN(C(=O)C2(C)CC2)CC1,-9.387%
CCO[C@@H]1CCN(C(=O)N(C)C)[C@@H]1Cc1cnn(C)c1,-18.31%
CC(Cn1cncn1)NCCN1CCc2ccccc2C1 (centres undefined),-7.238%
CC(=O)N(Cc1ncc(C(C)C)o1)C1CCN(CCn2cccn2)C1 (centres undefined),-12.51%
Cc1ccc(NC(=O)C(C)n2ccc(C(F)(F)F)n2)nc1 (centres undefined),-20.32%
Cc1nc(-n2cnnc2)ccc1-c1cccc2c1CCNC2,-33.47%
COCCCN(Cc1ccncc1)c1cc(C)ncn1,-26.82%
CC(c1ccccn1)N(C)Cc1ccc(-n2ccnc2)cc1 (centres undefined),3.6%
Cc1cc(C)c(CNC(=O)NCC(O)c2cccc(F)c2)c(=O)[nH]1 (centres undefined),18.9%
[H][C@@]12CCCCN(C)[C@]1([H])[C@@H](c1ccccc1)CCN2C(=O)c1cnccn1,8.717%
Cc1cc(NC(=O)c2nc(N3CCCC3)ncc2Cl)ccc1Br,-4.715%
C1CCC(c2nc3c(c(N4CCN5CCCC5C4)n2)CCNCC3)C1 (centres undefined),39.71%

The first 7 entries again:

* CCc1nccn1CCC(=O)N1CC[C@@H](c2ccc(F)cc2)[C@H](O)C1 : -25.79%
* O=C(c1cc(F)ccc1F)C1CCN(C(=O)c2ccccn2)CC1 : -11.74%
* COCCN1CCN(Cc2csc(-c3cnn(C)c3)n2)CC1 : 4.93%
* CCC(C)(NCC(=O)NC(C)C)c1nc(C)cs1 (centres undefined) : -21.69%
* N#Cc1ccc(CNC(=O)NC2CCN(c3ncccn3)CC2)cc1 : -43.55%
* CC(Nc1ccc(C(F)(F)F)cc1C#N)c1cccc(S(N)(=O)=O)c1 (centres undefined) : 47.4%
* Cn1cc(N2CCC(NC(=O)c3ccccc3Cl)C2=O)cn1 (centres undefined) : -54.55%